No constants are given. Whether binding was seen depends on the method and setting. Some entries that bind do so weakly or less than the wild type.
Biological target: outer membrane porin PhoE (UniProt P02932)
Assay: semi-native SDS-PAGE (heat modifiability assay); OMVs in semi-native sample buffer (0.4% SDS) left at room temperature (native), against 4% SDS at 95 °C for 10 min (denatured); resolving gel without SDS, run at 4 °C; Coomassie staining

B1: outer membrane porin PhoE (protein, UniProt P02932 22-351)
chain: AEIYNKDGNKLDVYGKVKAMHYMSDNASKDGDQSYIRFGFKGETQINDQLTGYGRWEAEFAGNKAESDTAQQKTRLAFAGLKYKDLGSFDYGRNLGALYDVEAWTDMFPEFGGDSSAQTDNFMTKRASGLATYRNTDFFGVIDGLNLTLQYQGKNENRDVKKQNGDGFGTSLTYDFGGSDFAISGAYTNSDRTNEQNLQSRGTGKRAEAWATGLKYDANNIYLATFYSETRKMTPITGGFANKTQNFEAVAQYQFDFGLRPSLGYVLSKGKDIEGIGDEDLVNYIDVGATYYFNKNMSAFVDYKINQLDSDNKLNINNDDIVAVGMTYQF
- binding: binds

— PMC12540271
